Results are given in words; binding and its absence hold for the method and conditions named. Binding seen in cells or lysates may run through a third protein. Some binding calls cover weakened binding; strength is not graded here.
Biological target: Bcl-2-associated transcription factor-1 (BCLAF1) (human (in 293T and Hep3B cells; endogenous or transfected not stated)) (UniProt Q9NYF8)
Test: co-IP; cell lysate, cell line not stated; which protein was precipitated not stated; Western blot

The chains behind the UniProt entries cited, without tags or fusion partners.
UniProt Q9NYF8: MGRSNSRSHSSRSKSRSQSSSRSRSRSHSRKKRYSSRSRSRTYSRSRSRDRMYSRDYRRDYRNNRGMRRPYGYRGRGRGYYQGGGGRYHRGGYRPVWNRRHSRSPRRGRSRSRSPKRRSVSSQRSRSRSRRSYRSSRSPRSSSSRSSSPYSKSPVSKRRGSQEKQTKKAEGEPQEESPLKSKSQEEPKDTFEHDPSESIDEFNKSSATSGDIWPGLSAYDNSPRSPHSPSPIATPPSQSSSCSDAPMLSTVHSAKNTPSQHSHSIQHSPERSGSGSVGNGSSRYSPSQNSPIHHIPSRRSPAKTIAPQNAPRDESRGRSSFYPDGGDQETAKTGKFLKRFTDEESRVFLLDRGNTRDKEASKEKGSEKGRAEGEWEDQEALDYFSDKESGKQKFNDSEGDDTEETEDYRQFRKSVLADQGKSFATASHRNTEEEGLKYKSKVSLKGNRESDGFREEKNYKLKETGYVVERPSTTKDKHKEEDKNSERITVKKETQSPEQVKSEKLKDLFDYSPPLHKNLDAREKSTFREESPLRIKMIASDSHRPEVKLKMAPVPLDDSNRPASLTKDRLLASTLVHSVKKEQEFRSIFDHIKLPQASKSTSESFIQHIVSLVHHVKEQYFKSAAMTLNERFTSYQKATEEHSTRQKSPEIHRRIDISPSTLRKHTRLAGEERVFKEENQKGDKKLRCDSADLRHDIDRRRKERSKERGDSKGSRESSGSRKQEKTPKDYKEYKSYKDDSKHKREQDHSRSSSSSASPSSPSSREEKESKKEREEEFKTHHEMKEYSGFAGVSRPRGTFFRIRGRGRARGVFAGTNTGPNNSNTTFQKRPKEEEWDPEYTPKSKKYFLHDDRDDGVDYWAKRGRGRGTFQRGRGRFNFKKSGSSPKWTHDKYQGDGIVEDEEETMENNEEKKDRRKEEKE
UniProt Q9GZT9: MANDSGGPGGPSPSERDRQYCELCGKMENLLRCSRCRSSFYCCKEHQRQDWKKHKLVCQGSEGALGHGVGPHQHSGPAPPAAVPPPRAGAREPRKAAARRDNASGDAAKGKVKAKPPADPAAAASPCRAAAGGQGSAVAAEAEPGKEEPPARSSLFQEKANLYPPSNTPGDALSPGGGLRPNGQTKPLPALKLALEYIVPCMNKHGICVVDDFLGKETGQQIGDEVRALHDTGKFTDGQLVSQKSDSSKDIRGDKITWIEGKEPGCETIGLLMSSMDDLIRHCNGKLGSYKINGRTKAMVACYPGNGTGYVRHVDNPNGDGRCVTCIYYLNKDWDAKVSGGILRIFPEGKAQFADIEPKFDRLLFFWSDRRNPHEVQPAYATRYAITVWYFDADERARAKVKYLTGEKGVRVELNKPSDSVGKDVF

- binding: binds
Substance: prolyl hydroxylase domain protein 2 (PHD2) (from UniProt Q9GZT9 1-426)
